# Laboratory results: PubChem BioAssay AID1259297 (Sanger Institute, 2017)
# Test: 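Kinases whose loss kills cells on their own or with targeted drugs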 (primary screen)
# Cells: human RCM1 colorectal cancer cell line
# Reagent: siRNA pool against human genes
# Treatment: separate arms: DMSO vehicle, or one anchor drug at a mild dose: BYL719 1 µM, cetuximab 5 µg/ml, trametinib 10 nM
# Read-out: 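Viability per well relative to a non-targeting pool, mean of replicates; robust z-score for knock-down alone; synergy score with BYL719, cetuximab or trametinib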
# Scale: viability z-score, knock-down alone: higher = more viable cells than non-targeting controls; viability, knock-down alone (DMSO): higher = more viable cells; synergy score with trametinib: higher = stronger combined killing with trametinib; synergy score with BYL719: higher = stronger combined killing with BYL719; synergy score with cetuximab: higher = stronger combined killing with cetuximab
# Rule for the call: 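Called essential if knock-down without drug gives a viability robust z-score under -3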
# Meaning of the calls: active = essential when knocked down alone; inactive = no clear loss of viability alone
# This is an unselected part of 794 reagents tested. 13 of them (1.6%) were called active. 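Calls reflect knock-down without drug only; drug synergy is judged separately, with scores above 0.15 counted as synergy.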 No viability above 1 is reported: the scale is capped. No sequences are given here. The record does not give: the amount of reagent, the time to read-out.
gene,"viability z-score, knock-down alone","viability, knock-down alone (DMSO) (fraction of control)",synergy score with trametinib,synergy score with BYL719,synergy score with cetuximab,Call
CDK1,0.9,1,-0.222,-0.0529,0.00924,inactive
DAPK3,-0.0605,0.911,0.189,0.213,0.044,inactive
TRIM27,0.9,1,-0.0253,-0.0728,-0.0909,inactive
AMHR2,-1.07,0.817,0.107,-0.0553,-0.0422,inactive
SRPK2,0.597,0.972,0.0496,0.0951,0.0105,inactive
NEK7,0.9,1,-0.0951,-0.0414,-0.118,inactive
RIOK2,-0.267,0.892,-0.101,-0.173,-0.0118,inactive
N4BP2,0.385,0.952,-0.0407,-0.117,-0.16,inactive
NEK6,0.9,1,-0.19,-0.0728,-0.118,inactive
SGK1,-0.895,0.833,-0.0119,-0.213,-0.265,inactive
KALRN,-0.632,0.858,0.121,-0.0852,-0.213,inactive
RAD21,0.9,1,-0.176,-0.0522,-0.101,inactive
MYO3B,0.542,0.967,-0.0349,-0.042,-0.117,inactive
KSR2,0.9,1,-0.0147,-0.0728,0.031,inactive
IGF2R,0.9,1,0.00963,-0.0152,-0.105,inactive
MAP2K4,-0.542,0.866,-0.109,0.114,0.0447,inactive
CAMK2N1,-3.15,0.624,0.0432,-0.0538,0.0615,active
FRK,0.303,0.945,-0.0903,-0.0838,-0.167,inactive
AK4,0.31,0.945,0.0587,0.018,-0.123,inactive
SIK1,-0.124,0.905,0.191,-0.00846,-0.0518,inactive
